# Source: article PMC7819943, “Rice protein-binding microarrays: a tool to detect cis-acting elements near promoter regions in rice”
# This is one part of the list.
# Molecular target: T1, OsSMF1 (Oryza sativa, UniProt Q6ZLB0 1-436)
# T1 sequence: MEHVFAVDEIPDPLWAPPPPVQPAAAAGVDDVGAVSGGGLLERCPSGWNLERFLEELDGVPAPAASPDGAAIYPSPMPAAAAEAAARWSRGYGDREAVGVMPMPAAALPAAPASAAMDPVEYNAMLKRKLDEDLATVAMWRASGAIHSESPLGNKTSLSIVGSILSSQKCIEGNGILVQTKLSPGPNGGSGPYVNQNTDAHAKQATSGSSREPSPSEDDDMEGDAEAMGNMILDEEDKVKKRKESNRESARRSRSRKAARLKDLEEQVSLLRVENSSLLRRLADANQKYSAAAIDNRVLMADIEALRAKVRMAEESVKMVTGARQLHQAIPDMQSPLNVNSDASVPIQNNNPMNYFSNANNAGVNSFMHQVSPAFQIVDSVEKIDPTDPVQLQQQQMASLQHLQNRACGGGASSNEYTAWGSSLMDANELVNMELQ
# Test: protein-binding microarray (RPBM); PBS, 2% BSA, 51.3 ng/ul salmon testes DNA, 50 uM zinc acetate, 200 nM TF, 25 C, 1 h; high values mean tight binding
# Details: protein: recombinant; tags: N-terminal polyhistidine and DsRed monomer fusion (pET32a); chain copies: 2; label: CyDye5-dUTP incorporated in the synthesized complementary strand; 3' TTTTT single-stranded linker to array surface; dsDNA, one strand shown
# How it was run: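 Binding signal is defined as the fluorescence intensity of each feature in arbitrary units, read on an Axon 4000B scanner. Transcription factors with N-terminal polyhistidine and DsRed fusions came from E. coli BL21-CodonPlus and were purified on Ni–NTA. They were incubated at 200 nM for 1 h at 25 °C on a custom Agilent array that had been made double-stranded with Cy5-dUTP, with 50 µM zinc acetate present, and the array was washed.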
row,Sequence,binding signal
1,TGGTACATGGTGTGCCCTACCGAGCTTAGTCAACCACTTTCGGAGTCACCTAGTGCAG,3230 fluorescence intensity (a.u.)
2,CTGAATGGGCCTCAATCCCAGCCCGTCCACGTGCATATATCGGAGTCACCTAGTGCAG,4760 fluorescence intensity (a.u.)
3,CTCCTACCTTCCCGTCGAAACGGCCATCTGGCACGTCTCGCGGAGTCACCTAGTGCAG,3220 fluorescence intensity (a.u.)
4,CTATGTGGTGGACGTGGGATACGCCGACGGTCGGGCTGAACGGAGTCACCTAGTGCAG,5060 fluorescence intensity (a.u.)
5,AGCTCTCGCTCCCGATGCCACACGCTGACGCTGTGCTCGTCGGAGTCACCTAGTGCAG,5190 fluorescence intensity (a.u.)
6,GCCTGAAATCCTGAATCCACATCATTCTATAGTCCCTGTCCGGAGTCACCTAGTGCAG,7060 fluorescence intensity (a.u.)
7,GTAAATATGACACATCCTAATAATCTAATCTAGCCGTCTACGGAGTCACCTAGTGCAG,3540 fluorescence intensity (a.u.)
8,CCTCCTCCTCAGCCCATGTACAGTGCGTTCCCCATTAGCTCGGAGTCACCTAGTGCAG,22800 fluorescence intensity (a.u.)
9,AGCAATTAGATCCTTTTGCATTGGATGGTAGTTTGCCAATCGGAGTCACCTAGTGCAG,28600 fluorescence intensity (a.u.)
10,CTAACATGTTCATGCTGACTCAACAGCCACATCGAACAAACGGAGTCACCTAGTGCAG,9780 fluorescence intensity (a.u.)
11,CTCCCCTCCCTTCGCCTCCGGCTCCTATCCCATCCGCATACGGAGTCACCTAGTGCAG,38100 fluorescence intensity (a.u.)
12,TGCAAAATAACCAGTGTCGACGCGGCCGCACCTGCGCTCGCGGAGTCACCTAGTGCAG,37900 fluorescence intensity (a.u.)
13,TTTGTGCATGCTTTATGTGTGATTTAACTTGGATAAATTTCGGAGTCACCTAGTGCAG,3190 fluorescence intensity (a.u.)
14,TTTATATCCATAAATAAATAGATATACACAGCTAAAGATCCGGAGTCACCTAGTGCAG,4930 fluorescence intensity (a.u.)
15,AGGACGCGACGTTCAGCGGGGCGGACCTGGCGGCGCTGATCGGAGTCACCTAGTGCAG,36900 fluorescence intensity (a.u.)
16,TCCAGTTTTGGTCTGGGTGATGTGTCATGTTCTGATTGGCCGGAGTCACCTAGTGCAG,12300 fluorescence intensity (a.u.)
17,CTTTTACTTTGTCATTACTTGGTATATCCACAGTTTGTCTCGGAGTCACCTAGTGCAG,3860 fluorescence intensity (a.u.)
18,CTAGCAGCATGACGCATTGACGCAGACGGAGTACTCGAGACGGAGTCACCTAGTGCAG,3970 fluorescence intensity (a.u.)
19,ATTAGATTTACCGCAAACAATGACGTCCTCCCTGCCTGGACGGAGTCACCTAGTGCAG,4900 fluorescence intensity (a.u.)
20,GGAACCTTGCAATGTTTAACATTTGTCAAACTGTGTGGCACGGAGTCACCTAGTGCAG,4780 fluorescence intensity (a.u.)
21,GGTAGAAGTCCTGTCCGTGCTCCTGAAAGAAGTGAAAGCACGGAGTCACCTAGTGCAG,36900 fluorescence intensity (a.u.)

row,Sequence,binding signal
1,ATGCTTTACCGTCTGACAACTCAGGTTGGACATTCTGTGGCGGAGTCACCTAGTGCAG,3480 fluorescence intensity (a.u.)
2,TTCATAGGCTTTGTGGTGGTGCTCGATTGGATAATTCTTCCGGAGTCACCTAGTGCAG,3440 fluorescence intensity (a.u.)
3,ATTCATCCTGGAGTGGACAAAGTCATCACAGGCGCCTCGCCGGAGTCACCTAGTGCAG,3650 fluorescence intensity (a.u.)
4,GCAGGAGCAAAGCGCTTACTTTTGCCTCACACTGTATAGTCGGAGTCACCTAGTGCAG,45400 fluorescence intensity (a.u.)
5,CATAATCGACTTTTAACATTTATTTTACAGTGATGGTTTTCGGAGTCACCTAGTGCAG,3490 fluorescence intensity (a.u.)
6,ACTCTACAAGTCGACATTAACGTTGTGACAGTGTTTCTTTCGGAGTCACCTAGTGCAG,3800 fluorescence intensity (a.u.)
7,CAATGAGACCGCGTATTAATTCAGGTCACCCAAATTTGCACGGAGTCACCTAGTGCAG,7490 fluorescence intensity (a.u.)
8,GAGCAAGGCGATGCTACTTGTATGTGACTGTACGTGACGCCGGAGTCACCTAGTGCAG,5600 fluorescence intensity (a.u.)
9,TACTCTCTTCGTTTCATATTATAAGTCGTTTGACTCTTTTCGGAGTCACCTAGTGCAG,3230 fluorescence intensity (a.u.)
10,TGAGACCGGCAGCACTCTAGTCAATACTCTATGACTTCTTCGGAGTCACCTAGTGCAG,4290 fluorescence intensity (a.u.)
11,CCATGTCGCCGCCTTCCCGTCCCCATCCGCGTCGCCACCGCGGAGTCACCTAGTGCAG,6350 fluorescence intensity (a.u.)
12,GCCAACACACGTGGTACCTGTACTGGGACACGCATGCTGACGGAGTCACCTAGTGCAG,7750 fluorescence intensity (a.u.)
13,ATAGAAGGAAGGATTATTACTATAATAAAATGATAAACAACGGAGTCACCTAGTGCAG,38600 fluorescence intensity (a.u.)
14,TTCTTTACAACTATACCAGTGAGGTATGAGGTGCCTATCTCGGAGTCACCTAGTGCAG,23600 fluorescence intensity (a.u.)
15,TGATCTGATGGCTTAAAATTGTTGATGATGTGGCTTCTTGCGGAGTCACCTAGTGCAG,11300 fluorescence intensity (a.u.)
16,CTGGATCGAATTGCCACGTAAGCGCCACGTCAGTGCCACACGGAGTCACCTAGTGCAG,20700 fluorescence intensity (a.u.)
17,TGACCAGTGCGGATTCCATGTGTGCCACAACATGTGCCTTCGGAGTCACCTAGTGCAG,4130 fluorescence intensity (a.u.)
18,GACTTCTCTCGCGCCGGCCACCGTCACCTCACACAGGCCCCGGAGTCACCTAGTGCAG,3420 fluorescence intensity (a.u.)
19,GGTTCGCAAACCCATTACCTTGAGTCATATTGTGTGGCAACGGAGTCACCTAGTGCAG,4800 fluorescence intensity (a.u.)
20,GATTTCAGAACATGGATTGACGTGTATTTCGGTGAATTTGCGGAGTCACCTAGTGCAG,7080 fluorescence intensity (a.u.)
21,ATCGGACGGTGGCAGGGCTCTTCCCGCCCACGCCCAATACCGGAGTCACCTAGTGCAG,4380 fluorescence intensity (a.u.)

# Single entries from the entries so far:
# Value of GATTTCAGAACATGGATTGACGTGTATTTCGGTGAATTTGCGGAGTCACCTAGTGCAG under binding signal: 7080 fluorescence intensity (a.u.)
# Value of TACTCTCTTCGTTTCATATTATAAGTCGTTTGACTCTTTTCGGAGTCACCTAGTGCAG under binding signal: 3230 fluorescence intensity (a.u.)
